For the assay, the target named is β-catenin (human (endogenous in T47D)) (UniProt P35222). Put plainly: co-IP; endogenous proteins of T47D cells lysed in RIPA buffer; ~2 mg lysate with 2 ug anti-E-cadherin or anti-β-catenin antibody overnight at 4°C, protein A/G agarose beads, western blot; cells with or without EGTA (4 mM), Ca2+ (1.8 mM) added after EGTA; irrelevant IgG as negative control. (Immunoblotting shows a protein as a band on a membrane.)

Protein sequences, listed by entry. Tags and fused reporters are not part of them. Lines headed by an entry give the natural chain unless they say otherwise; changes in a name come on top.
UniProt P35222: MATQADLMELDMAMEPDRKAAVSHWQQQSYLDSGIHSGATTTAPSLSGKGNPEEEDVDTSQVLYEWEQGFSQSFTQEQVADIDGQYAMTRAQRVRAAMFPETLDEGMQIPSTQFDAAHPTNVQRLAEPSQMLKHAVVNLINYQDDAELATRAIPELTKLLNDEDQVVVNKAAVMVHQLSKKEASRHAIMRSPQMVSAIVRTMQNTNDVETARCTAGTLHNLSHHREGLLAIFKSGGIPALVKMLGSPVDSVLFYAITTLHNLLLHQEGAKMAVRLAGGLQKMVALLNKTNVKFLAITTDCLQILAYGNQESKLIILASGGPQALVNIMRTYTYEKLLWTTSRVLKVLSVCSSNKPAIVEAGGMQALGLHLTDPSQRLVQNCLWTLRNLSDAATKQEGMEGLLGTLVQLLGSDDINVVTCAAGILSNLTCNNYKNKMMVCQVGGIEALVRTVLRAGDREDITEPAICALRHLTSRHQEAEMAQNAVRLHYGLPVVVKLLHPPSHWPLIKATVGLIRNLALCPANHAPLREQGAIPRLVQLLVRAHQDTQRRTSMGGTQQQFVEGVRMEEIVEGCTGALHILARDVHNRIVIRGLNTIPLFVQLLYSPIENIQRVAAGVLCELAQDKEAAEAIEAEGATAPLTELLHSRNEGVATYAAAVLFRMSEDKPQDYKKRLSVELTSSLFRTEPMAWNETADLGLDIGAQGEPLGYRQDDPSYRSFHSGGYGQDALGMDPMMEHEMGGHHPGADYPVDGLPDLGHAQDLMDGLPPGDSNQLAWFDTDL

Drawing on article PMC6527379, this text covers binding for one molecule.

Results are given in words; binding and its absence hold for the method and conditions named. In cells and extracts the contact can be indirect. Some results given as binding are weak or reduced against the parent protein; the word gives no strength.

B1: Small G protein signalling modulator 2 (SGSM2) (protein, UniProt O43147 1-1006)
chain: MGSAEDAVKEKLLWNVKKEVKQIMEEAVTRKFVHEDSSHIIALCGAVEACLLHQLRRRAAGFLRSDKMAALFTKVGKTCPVAGEICHKVQELQQQAEGRKPSGVSQEALRRQGSASGKAPALSPQALKHVWVRTALIEKVLDKVVQYLAENCSKYYEKEALLADPVFGPILASLLVGPCALEYTKLKTADHYWTDPSADELVQRHRIRGPPTRQDSPAKRPALGIRKRHSSGSASEDRLAACARECVESLHQNSRTRLLYGKNHVLVQPKEDMEAVPGYLSLHQSAESLTLKWTPNQLMNGTLGDSELEKSVYWDYALVVPFSQVVCIHCHQQKSGGTLVLVSQDGIQRPPLHFPQGGHLLSFLSCLENGLLPRGQLEPPLWTQQGKGKVFPKLRKRSSIRSVDMEEMGTGRATDYVFRIIYPGHRHEHNAGDMIEMQGFGPSLPAWHLEPLCSQGSSCLSCSSSSSPHATPSHCSCIPDRLPLRLLCESMKRQIVSRAFYGWLAHCRHLSTVRTHLSALVHHSVIPPDRPPGASAGLTKDVWSKYQKDKKNYKELELLRQVYYGGIEHEIRKDVWPFLLGHYKFGMSKKEMEQVDAVVAARYQQVLAEWKACEVVVRQREREAHPATRTKFSSGSSIDSHVQRLIHRDSTISNDVFISVDDLEPPEPQDPEDSRPKPEQEAGPGTPGTAVVEQQHSVEFDSPDSGLPSSRNYSVASGIQSSLDEGQSVGFEEEDGGGEEGSSGPGPAAHTLREPQDPSQEKPQAGELEAGEELAAVCAAAYTIELLDTVALNLHRIDKDVQRCDRNYWYFTPPNLERLRDVMCSYVWEHLDVGYVQGMCDLLAPLLVTLDNDQLAYSCFSHLMKRMSQNFPNGGAMDTHFANMRSLIQILDSELFELMHQNGDYTHFYFCYRWFLLDFKRELLYEDVFAVWEVIWAARHISSEHFVLFIALALVEAYREIIRDNNMDFTDIIKFFNERAEHHDAQEILRIARDLVHKVQMLIENK
B1: the binding result is “binds”.
